Reference: doi:10.1101/2025.07.29.667382 (bioRxiv, 2025)
Results are given in words; binding and its absence hold for the method and conditions named. Binding seen in cells or lysates may run through a third protein. Some binding calls cover weakened binding; strength is not graded here. Where a sequence is shown, tags or fusion partners need not be part of it.

T1: Snx3^V5 (yeast (strain BY4742)) (UniProt Q08826)
T1 sequence: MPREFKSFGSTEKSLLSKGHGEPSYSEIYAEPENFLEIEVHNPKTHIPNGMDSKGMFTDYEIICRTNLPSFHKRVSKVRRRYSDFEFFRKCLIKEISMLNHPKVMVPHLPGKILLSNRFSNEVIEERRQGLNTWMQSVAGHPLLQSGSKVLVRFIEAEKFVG

T2: Vps35^QGRE-yomCherry (yeast (strain BY4742)) (UniProt P34110)
T2 sequence: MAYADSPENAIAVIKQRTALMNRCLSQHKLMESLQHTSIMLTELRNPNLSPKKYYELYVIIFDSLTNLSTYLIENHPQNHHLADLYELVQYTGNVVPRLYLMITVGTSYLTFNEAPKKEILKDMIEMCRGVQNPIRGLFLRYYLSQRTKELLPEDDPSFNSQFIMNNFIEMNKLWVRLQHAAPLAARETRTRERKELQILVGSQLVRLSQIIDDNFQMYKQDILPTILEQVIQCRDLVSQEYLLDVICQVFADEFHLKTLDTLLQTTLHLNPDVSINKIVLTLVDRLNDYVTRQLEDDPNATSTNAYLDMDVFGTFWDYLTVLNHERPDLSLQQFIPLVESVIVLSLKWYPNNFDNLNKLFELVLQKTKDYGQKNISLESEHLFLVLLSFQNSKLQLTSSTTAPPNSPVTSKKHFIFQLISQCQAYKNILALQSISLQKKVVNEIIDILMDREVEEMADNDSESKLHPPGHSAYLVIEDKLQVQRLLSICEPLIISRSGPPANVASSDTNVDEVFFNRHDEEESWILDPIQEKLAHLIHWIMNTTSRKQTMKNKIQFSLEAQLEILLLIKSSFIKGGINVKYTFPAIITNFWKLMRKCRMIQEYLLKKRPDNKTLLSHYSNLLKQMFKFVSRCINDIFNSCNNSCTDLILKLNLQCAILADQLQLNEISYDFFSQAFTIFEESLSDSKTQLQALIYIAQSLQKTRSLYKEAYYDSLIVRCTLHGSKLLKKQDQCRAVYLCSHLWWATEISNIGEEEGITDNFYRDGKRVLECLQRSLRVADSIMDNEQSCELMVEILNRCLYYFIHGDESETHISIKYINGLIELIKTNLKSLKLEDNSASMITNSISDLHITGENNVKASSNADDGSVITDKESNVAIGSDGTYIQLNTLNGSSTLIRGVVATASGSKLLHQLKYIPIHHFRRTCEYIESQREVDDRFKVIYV

T3: Vps35^yomCherry (wildtype) (yeast (strain BY4742)) (UniProt P34110)
T3 sequence: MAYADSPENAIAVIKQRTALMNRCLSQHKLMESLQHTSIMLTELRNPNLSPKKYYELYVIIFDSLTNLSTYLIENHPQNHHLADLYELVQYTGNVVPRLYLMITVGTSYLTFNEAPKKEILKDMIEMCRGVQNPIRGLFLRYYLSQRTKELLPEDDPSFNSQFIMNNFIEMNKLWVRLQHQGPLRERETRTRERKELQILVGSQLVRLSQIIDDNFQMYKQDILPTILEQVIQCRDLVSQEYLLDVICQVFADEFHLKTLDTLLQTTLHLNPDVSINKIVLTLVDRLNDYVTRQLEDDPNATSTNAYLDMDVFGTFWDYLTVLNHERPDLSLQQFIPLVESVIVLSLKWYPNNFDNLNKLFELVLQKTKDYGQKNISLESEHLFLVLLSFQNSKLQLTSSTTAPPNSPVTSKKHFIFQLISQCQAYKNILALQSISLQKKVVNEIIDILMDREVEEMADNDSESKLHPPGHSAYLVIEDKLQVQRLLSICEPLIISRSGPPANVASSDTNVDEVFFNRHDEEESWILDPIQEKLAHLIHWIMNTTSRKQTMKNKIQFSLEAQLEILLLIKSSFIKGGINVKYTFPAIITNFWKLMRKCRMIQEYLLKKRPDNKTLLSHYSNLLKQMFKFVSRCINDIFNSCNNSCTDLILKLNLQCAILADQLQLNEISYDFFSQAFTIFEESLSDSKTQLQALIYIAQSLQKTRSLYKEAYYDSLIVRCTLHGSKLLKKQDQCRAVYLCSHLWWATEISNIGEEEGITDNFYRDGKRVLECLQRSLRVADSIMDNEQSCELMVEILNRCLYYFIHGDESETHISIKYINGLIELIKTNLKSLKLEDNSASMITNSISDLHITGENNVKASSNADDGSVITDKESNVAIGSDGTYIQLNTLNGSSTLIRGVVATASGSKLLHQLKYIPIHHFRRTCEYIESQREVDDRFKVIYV


Legend:
Test in all cases: co-IP
[1] = biological target: T1, Snx3^V5 (yeast (strain BY4742))
[2] = biological target: T2, Vps35^QGRE-yomCherry (yeast (strain BY4742))
[3] = biological target: T3, Vps35^yomCherry (wildtype) (yeast (strain BY4742))

binding [1]	binding [2]	binding [3]	Binder
binds			Vps35^yomCherry (wildtype) (protein, UniProt P34110 1-944) MAYADSPENAIAVIKQRTALMNRCLSQHKLMESLQHTSIMLTELRNPNLSPKKYYELYVIIFDSLTNLSTYLIENHPQNHHLADLYELVQYTGNVVPRLYLMITVGTSYLTFNEAPKKEILKDMIEMCRGVQNPIRGLFLRYYLSQRTKELLPEDDPSFNSQFIMNNFIEMNKLWVRLQHQGPLRERETRTRERKELQILVGSQLVRLSQIIDDNFQMYKQDILPTILEQVIQCRDLVSQEYLLDVICQVFADEFHLKTLDTLLQTTLHLNPDVSINKIVLTLVDRLNDYVTRQLEDDPNATSTNAYLDMDVFGTFWDYLTVLNHERPDLSLQQFIPLVESVIVLSLKWYPNNFDNLNKLFELVLQKTKDYGQKNISLESEHLFLVLLSFQNSKLQLTSSTTAPPNSPVTSKKHFIFQLISQCQAYKNILALQSISLQKKVVNEIIDILMDREVEEMADNDSESKLHPPGHSAYLVIEDKLQVQRLLSICEPLIISRSGPPANVASSDTNVDEVFFNRHDEEESWILDPIQEKLAHLIHWIMNTTSRKQTMKNKIQFSLEAQLEILLLIKSSFIKGGINVKYTFPAIITNFWKLMRKCRMIQEYLLKKRPDNKTLLSHYSNLLKQMFKFVSRCINDIFNSCNNSCTDLILKLNLQCAILADQLQLNEISYDFFSQAFTIFEESLSDSKTQLQALIYIAQSLQKTRSLYKEAYYDSLIVRCTLHGSKLLKKQDQCRAVYLCSHLWWATEISNIGEEEGITDNFYRDGKRVLECLQRSLRVADSIMDNEQSCELMVEILNRCLYYFIHGDESETHISIKYINGLIELIKTNLKSLKLEDNSASMITNSISDLHITGENNVKASSNADDGSVITDKESNVAIGSDGTYIQLNTLNGSSTLIRGVVATASGSKLLHQLKYIPIHHFRRTCEYIESQREVDDRFKVIYV
	binds	binds	Vps5^HA (protein, UniProt Q92331 1-675) MDYEDNLEAPVWDELNHEGDKTQSLVSNSIESIGQISTNEERKDNELLETTASFADKIDLDSAPEWKDPGLSVAGNPQLEEHDNSKADDLINSLAPEQDPIADLKNSTTQFIATRESGGALFTGNANSPLVFDDTIYDANTSPNTSKSISGRRSGKPRILFDSARAQRNSKRNHSLKAKRTTASDDTIKTPFTDPLKKAEKENEFVEEPLDDRNERRENNEGKFTASVEKNILEQVDRPLYNLPQTGANISSPAEVEENSEKFGKTKIGSKVPPTEKAVAFKVEVKDPVKVGELTSIHVEYTVISESSLLELKYAQVSRRYRDFRWLYRQLQNNHWGKVIPPPPEKQSVGSFKENFIENRRFQMESMLKKICQDPVLQKDKDFLLFLTSDDFSSESKKRAFLTGSGAINDSNDLSEVRISEIQLLGAEDAAEVLKNGGIDAESHKGFMSISFSSLPKYNEADEFFIEKKQKIDELEDNLKKLSKSLEMVDTSRNTLAASTEEFSSMVETLASLNVSEPNSELLNNFADVHKSIKSSLERSSLQETLTMGVMLDDYIRSLASVKAIFNQRSKLGYFLVVIENDMNKKHSQLGKLGQNIHSEKFREMRKEFQTLERRYNLTKKQWQAVGDKIKDEFQGFSTDKIREFRNGMEISLEAAIESQKECIELWETFYQTNL
	no binding	binds	Snx3^V5 (protein, UniProt Q08826 1-162) MPREFKSFGSTEKSLLSKGHGEPSYSEIYAEPENFLEIEVHNPKTHIPNGMDSKGMFTDYEIICRTNLPSFHKRVSKVRRRYSDFEFFRKCLIKEISMLNHPKVMVPHLPGKILLSNRFSNEVIEERRQGLNTWMQSVAGHPLLQSGSKVLVRFIEAEKFVG
